Patent publication US20250179176A1, “ANTI-TIGIT ANTIBODIES AND USES OF THE SAME” (ARCUS BIOSCIENCES, INC., priority 2022, published 2025)

System: metastatic (Stage IV) squamous or non-squamous NSCLC
Assay: Phase 2 study in front-line NSCLC (ARC-7), efficacy
Assay type: in vivo, human
Details: ITT-13, cutoff Aug. 31, 2022
Text: Participants were randomized 1:1:1 across the three study arms and treated until disease progression or loss of clinical benefit. […] Patients in the zimberelimab monotherapy arm with confirmed progression had the option to cross over to the triplet arm. Co-primary endpoints were objective response rate (ORR) and progression-free survival (PFS). Secondary endpoints included safety, duration of response and disease control rates. Additional assessments of response/on-treatment effects may include measures of immune cell activation, immune cell suppression, immune cell proliferation, T cell receptor dynamics, and/or increases in memory and antigen experienced T cells in periphery or tumor microenvironment, as well as molecular response assessment by ctDNA dynamics and/or changes in tumor cell markers or gene expression.
Further data were obtained from an interim analysis with a data cutoff of Aug. 31, 2022.

Substance: zimberelimab: antagonistic PD-1 antibody, immune checkpoint inhibitor
- patients remaining on study treatment: 28%
